From PubChem BioAssay AID504834 (National Center for Advancing Translational Sciences (NCATS), 2011)
Hit rate of the full screen: of about 320,000 compounds, about 22,000 (6.9%) were called active. The shares of active, inactive and inconclusive entries below differ from those in the screen. Calls come from the whole dose curve; as a rule, active = well fitted inhibition curve with a large enough effect; inconclusive = small, poorly fitted or top-dose-only effect, or another doubt; inactive = no such curve, though single readings can be large or run the other way. Potencies beside an inconclusive call are fits to weak or partial responses and may not hold up.
% is set by controls: 0 for no effect and ±100 for the full control effect; potency is the fitted concentration of half-maximal effect.

Test: Primary qHTS for delayed death inhibitors of the malarial parasite plastid, 96 hour incubation
Settings: P. falciparum luciferase reporter growth; series mostly up to 28.7 µM; activity change, negative = inhibition: at the top concentration
Method in brief: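 Compounds incubated with erythrocytes infected by luciferase-expressing P. falciparum (2% hematocrit, 0.05% parasitemia final) for 96 hours, 37 C in 5% CO2. Growth inhibition scored as decreased luciferase luminescence.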
For `Cc1ccccc1OCC(=O)OCC(=O)N1CCc2ccccc21`, the “activity change, negative = inhibition” value was inactive: 39.7%. For `COc1ccc(NC(=O)N2CCCCCC2)cc1`, the Potency was inconclusive: 1.17 µM [inhibitor, full curve]. For `COc1ccccc1CN(C)C(=O)CN1CCN(S(=O)(=O)c2ccc3c(c2)OCCCO3)CC1`, the Potency was inconclusive: 13.1 µM [inhibitor, single point]. In the case of `O=C(NCc1ccco1)C(c1cccs1)N(Cc1ccccc1)C(=O)Cn1nnc2ccccc21` (stereo not drawn), the Potency was inconclusive: 18.5 µM [inhibitor, single point]. In the case of `CCCCc1ccc(-c2csc(/C(C#N)=C/c3ccc(C)o3)n2)cc1`, the Potency was inconclusive: 16.5 µM [inhibitor, partial curve, poor fit]. For `CCOC(=O)c1ccc(N2C(=O)c3n[nH]c(C)c3C2c2ccc(O)cc2)cc1` (stereo not drawn), the Potency was inconclusive: 0.928 µM [inhibitor, full curve, poor fit]. In the case of `CN(C)S(=O)(=O)c1cc(C(=O)NCCCn2ccc3ccccc32)ccc1Cl`, the Potency was active: 4.15 µM. For `CCN(CC)C(=O)N1CCN(Cc2ccc3c(c2)OCO3)CC1`, the Potency was inconclusive: 18.5 µM [inhibitor, single point]. With `O=C(Nc1ccccc1)N1CCCN(c2nccc(C(F)(F)F)n2)CC1` the Potency was inconclusive: 10.4 µM [inhibitor, partial curve, poor fit]. In the case of `COC(=O)c1sccc1NC(=O)Nc1ccccc1C`, the “activity change, negative = inhibition” value was inactive: 34.6%. For `COc1ccc(C2CC(c3c(O)cc(C)oc3=O)=NCCS2)c(OC)c1` (stereo not drawn), the “activity change, negative = inhibition” value was inactive: 11.6%. With `CCN(CC)S(=O)(=O)c1cc(C(=O)OCC(=O)c2ccc3c(c2)NC(=O)CO3)ccc1Cl` the “activity change, negative = inhibition” value was inactive: -2.47%. With `Cc1ccc(N(C(=O)CCl)C(C(=O)NC2CCCCC2)c2cccnc2)cc1C` (stereo not drawn) the Potency was inconclusive: 10.4 µM [inhibitor, partial curve, poor fit]. With `Cn1nnc(NC(=S)NC(=O)c2ccccc2)n1` the Potency was inconclusive: 6.57 µM [inhibitor, partial curve]. With `O=C(c1cc(-c2ccc(F)cc2)no1)N1CCN(Cc2ccc3c(c2)OCO3)CC1` the Potency was inconclusive: 11.7 µM [inhibitor, partial curve, poor fit]. In the case of `CCOc1ccc(N2C(=O)CC(N3CCN(C4CCc5ccccc5C4)CC3)C2=O)cc1` (stereo not drawn), the Potency was inconclusive: 10.4 µM [inhibitor, single point]. With `O=C(COC(=O)/C=C/c1ccc(Cl)cc1Cl)NCc1ccco1` the “activity change, negative = inhibition” value was inactive: -10.3%. In the case of `Cc1cccc(Nc2ncnc3c2cnn3Cc2ccccc2)c1`, the Potency was inconclusive: 10.4 µM [inhibitor, single point]. For `CCN(CC)S(=O)(=O)c1ccc2oc(C(=O)NC3CC3)c(C)c2c1`, the Potency was inconclusive: 10.4 µM [inhibitor, partial curve, poor fit]. With `Nc1nc(Nc2cccc(Cl)c2)n[nH]1` the Potency was inconclusive: 0.415 µM [inhibitor, partial curve]. For `O=c1[nH]cc(NCCNc2ncc(C(F)(F)F)cc2Cl)c(=O)[nH]1`, the “activity change, negative = inhibition” value was inactive: 42%. In the case of `CN(/C=C/C(=O)C(F)(F)F)Cc1ccccc1`, the “activity change, negative = inhibition” value was inactive: -2%. For `CCc1cccc(CC)c1NC(=O)c1cccc(NC(=O)c2ccccc2)c1`, the Potency was inconclusive: 18.5 µM [inhibitor, single point]. In the case of `CC1CCC(C(C)C)C(OCC(O)C[N+]2(C)CCCCC2)C1` (stereo not drawn), the “activity change, negative = inhibition” value was inactive: 91.6%. In the case of `CC(=O)c1cc(CN2CCN(CC=C(C)C)C(CCO)C2)cs1` (stereo not drawn), the “activity change, negative = inhibition” value was inactive: -4.64%. With `Cc1ccccc1-c1nnc(-c2ccc(Cl)cc2)o1` the “activity change, negative = inhibition” value was inactive: 112%. For `O=C(NCc1ccccn1)/C(=C/c1ccco1)NC(=O)c1ccccc1`, the Potency was inconclusive: 18.5 µM [inhibitor, single point]. For `COC(=O)c1c(NC(=O)Cn2nc(C(F)F)cc2C(F)F)sc(C)c1C`, the Potency was inconclusive: 18.5 µM [inhibitor, single point]. For `O=C(NCCCn1ccnc1)/C(=C\c1ccc(Br)cc1)NC(=O)c1ccccc1F`, the Potency was inconclusive: 11.7 µM [inhibitor, partial curve]. In the case of `O=C(Cc1ccccc1[N+](=O)[O-])NCCCN1CCOCC1`, the “activity change, negative = inhibition” value was inactive: 4.87%. In the case of `Cc1cc(=O)n2nc(N3CCCC(C(=O)NCCc4ccc(Cl)cc4)C3)sc2n1` (stereo not drawn), the Potency was inconclusive: 11.7 µM [inhibitor, single point]. With `CCCCCCCCCCCNC(=O)c1ccoc1C` the Potency was inconclusive: 9.28 µM [inhibitor, partial curve, poor fit]. For `CSc1nc(Oc2ccc3ccccc3c2)c2sccc2n1`, the Potency was inconclusive: 18.5 µM [inhibitor, single point]. With `CN(C)c1ccc(P(=O)(OC2CCCCC2)C(O)c2cccnc2)cc1` (stereo not drawn) the “activity change, negative = inhibition” value was inactive: -21.6%. For `COc1ccc(CCN2C(=O)C3C4C=CC(C3C2=O)C2C(=O)N(CCc3ccc(OC)c(OC)c3)C(=O)C42)cc1OC` (stereo not drawn), the Potency was inconclusive: 13.1 µM [inhibitor, partial curve, poor fit]. With `Cc1cc(NC(=O)c2c(-c3ccccc3Cl)noc2C)no1` the Potency was inconclusive: 18.5 µM [inhibitor, single point]. For `CCc1nnc(SCC(=O)NC2CCCC2)nc1CC`, the Potency was inconclusive: 1.04 µM [inhibitor, partial curve, poor fit]. For `COc1ccc(N2CCOCC2)c(NC(=O)c2cccnc2)c1`, the “activity change, negative = inhibition” value was inactive: -19.2%. For `CCOC(=O)C1=C(N)N2C(=O)C(C)SC2=C(C(=O)OCC)C1c1ccccc1` (stereo not drawn), the Potency was inconclusive: 18.5 µM [inhibitor, single point]. For `CCn1c(SCC(=O)NC2=NCCS2)nnc1C(C)NC(=O)c1ccccc1F` (stereo not drawn), the “activity change, negative = inhibition” value was inactive: 19.2%. With `O=C(c1ccc(Cl)c([N+](=O)[O-])c1)N1CCCc2ccccc21` the Potency was inconclusive: 18.5 µM [inhibitor, single point]. With `CC(C)c1c(O)cc(-c2ccncc2)n(-c2ccc(Cl)cc2)c1=O` the Potency was inconclusive: 14.7 µM [inhibitor, partial curve, poor fit]. In the case of `CCN(CC(=O)NCc1ccccn1)S(=O)(=O)c1ccc(OC)cc1`, the “activity change, negative = inhibition” value was inactive: -0.45%. In the case of `COc1ccc(S(=O)(=O)Nc2cc3c4c(c2)CCN4C(=O)CC3)cc1C`, the Potency was inconclusive: 11.7 µM [inhibitor, single point]. With `FC(F)(F)c1ccc(N2CCN(c3ncnc4c3nnn4Cc3ccccc3)CC2)nc1` the Potency was inconclusive: 18.5 µM [inhibitor, single point]. In the case of `CCC(CC)c1nnc(NC(=O)C23CC4CC(CC(NC(C)=O)(C4)C2)C3)s1`, the Potency was inconclusive: 10.4 µM [inhibitor, single point]. In the case of `S=C(NCc1ccco1)Nc1ccc(Br)cn1`, the Potency was inconclusive: 7.38 µM [inhibitor, partial curve]. For `CCN1C(=O)c2ccccc2S(=O)(=O)c2ccc(C(=O)NCc3cccnc3)cc21`, the Potency was inconclusive: 18.5 µM [inhibitor, single point]. In the case of `CC(C)(C)NC(=O)CCn1nc(-c2ccc(Cl)cc2)c2ccccc2c1=O`, the Potency was inconclusive: 18.5 µM [inhibitor, single point]. With `Cc1nn(C(C)C(=O)Nc2ccc(Cl)cn2)c(C)c1[N+](=O)[O-]` (stereo not drawn) the Potency was inconclusive: 10.4 µM [inhibitor, single point]. In the case of `COc1ccc(C(=O)C(C)[n+]2ccc(C)c3ccccc32)cc1[N+](=O)[O-]` (stereo not drawn), the Potency was inconclusive: 18.5 µM [inhibitor, single point]. With `CCOc1ccccc1NC(=O)/C=C/c1ccc(S(=O)(=O)N2CCOCC2)cc1` the Potency was active: 4.65 µM. In the case of `O=C(O)CCC(=O)N1N=C(c2c(-c3ccccc3)c3cc(Cl)ccc3[nH]c2=O)CC1c1ccco1` (stereo not drawn), the Potency was inconclusive: 10.4 µM [inhibitor, single point]. In the case of `CCC(CC)C(=O)Nc1nnc(-c2cccs2)s1`, the “activity change, negative = inhibition” value was inactive: -58.4%. In the case of `Cc1ccc(Nc2ccc(C(=O)NCCc3ccccc3)cn2)cc1`, the Potency was inconclusive: 16.5 µM [inhibitor, single point]. For `CC(CCc1ccccc1)NC(=O)c1cc2sccc2n1C` (stereo not drawn), the “activity change, negative = inhibition” value was inactive: 34%. With `S=C(NCc1cccnc1)Nc1ccc(Cl)c(Cl)c1` the Potency was inconclusive: 18.5 µM [inhibitor, single point]. In the case of `CN(CC(=O)Nc1ccccc1Br)C(=O)CCC1CCCC1`, the Potency was inconclusive: 9.28 µM [inhibitor, partial curve, poor fit]. With `O=C(COc1ccc(Br)cc1)N1CCN(c2ncccn2)CC1` the Potency was inconclusive: 5.22 µM [inhibitor, partial curve, poor fit]. In the case of `CC(=O)Nc1ccc(Nc2nnc(-c3ccc(C)c(S(=O)(=O)NCCO)c3)c3ccccc23)cc1`, the Potency was inconclusive: 18.5 µM [inhibitor, single point]. For `N=C1/C(=C/c2ccc(-c3cccc(C(=O)O)c3)o2)C(=O)N=C2SC=C(c3ccccc3)N12`, the Potency was inconclusive: 13.1 µM [inhibitor, single point]. With `CCO[C@H]1OC(C(=O)Nc2ccccc2)=C[C@@H](c2ccc(C(F)(F)F)cc2)[C@@H]1CCCO` the Potency was inconclusive: 10.4 µM [inhibitor, single point]. With `c1coc(Cn2nnnc2CN2CCN(C3CCCC3)CC2)c1` the “activity change, negative = inhibition” value was inactive: 1.01%. For `CCOC(=O)c1oc2ccccc2c1NC(=O)c1cccc(OC)c1OC`, the Potency was inconclusive: 11.7 µM [inhibitor, single point]. With `CN(C)Cc1nc2c(c(=O)[nH]1)C(C)(C)Cc1ccccc1-2` the Potency was inconclusive: 8.28 µM [inhibitor, partial curve, poor fit]. For `COc1ccc(CCN2CC(C(=O)NCCc3ccc(F)cc3)CCC2=O)cc1` (stereo not drawn), the Potency was inconclusive: 11.7 µM [inhibitor, partial curve, poor fit]. In the case of `COc1ccc(Br)cc1C(=O)NC(=S)Nc1ccc(CN2CCOCC2)cc1`, the Potency was active: 4.65 µM. In the case of `COc1ccc(CC(=O)N2CCC(n3nccc3NC(=O)C3CC3)CC2)cc1`, the Potency was inconclusive: 11.7 µM [inhibitor, single point].
